# Results from one PubChem assay

From PubChem BioAssay record AID743292 (NCATS, 2014).

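Survival of HCT-116 cells carrying a p53 reporter, judged by cellular ATP light output after a 16 h treatment. The number is a fitted half-maximal potency for loss of viability across the dilution series, and a lower value means a more potent cytotoxic effect. Calls come from the whole dose curve; weak, poorly fitted or top-dose-only effects, or other doubts, are called inconclusive.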

Values are in nM. Every entry below has the call inconclusive. Only part of the assay is shown, chiefly results filed as inconclusive. A potency from a partial, single-point or poor curve is only a rough figure. Some entries filed as inconclusive have a full curve. An entry listed twice with the same setting is a separate test.

SMILES,potency (nM),remark
C=C1CC[C@H](O)C/C1=C/C=C1\CCC[C@]2(C)[C@@H]([C@H](C)CCCC(C)C)CC[C@@H]12,50118,"cytotoxic, single point"
O=Nc1ccc(Nc2ccccc2)cc1,79432,"cytotoxic, single point"
ClC1=C(Cl)C2(Cl)C3C4C=CC(C4)C3C1(Cl)C2(Cl)Cl (centres undefined),56234,"cytotoxic, single point"
Brc1ccc(Oc2cc(Br)c(Br)cc2Br)c(Br)c1,25118,"cytotoxic, full curve, poor fit"
NC1=NC(S)C2N=CN=C2N1 (centres undefined),1778,"cytotoxic, full curve"
COC(=O)C1=C(C)NC(C)=C(C(=O)OC)C1c1ccccc1[N+](=O)[O-],50118,"cytotoxic, partial curve, poor fit"
C=C1C(CCl)(CCl)C2(Cl)C(Cl)C(Cl)C1(Cl)C2(Cl)Cl (centres undefined),50118,"cytotoxic, partial curve, poor fit"
Cc1c(COC(=O)C2C(/C=C(\Cl)C(F)(F)F)C2(C)C)cccc1-c1ccccc1 (centres undefined),28183,"cytotoxic, partial curve, poor fit"
Brc1ccc(Oc2cc(Br)c(Br)cc2Br)c(Br)c1,44668,"cytotoxic, partial curve, poor fit"
CC(C)(C)NC(=O)[C@@H]1C[C@@H]2CCCC[C@@H]2CN1C[C@@H](O)[C@H](Cc1ccccc1)NC(=O)[C@H](CC(N)=O)NC(=O)c1ccc2ccccc2n1,50118,"cytotoxic, partial curve, poor fit"
O=C1OC(O)C(C(Cl)Cl)=C1Cl (centres undefined),31622,"cytotoxic, partial curve, poor fit"
OC(c1ccc(Cl)cc1)(c1ccc(Cl)cc1)C(Cl)(Cl)Cl,70794,"cytotoxic, single point"
Brc1ccc(Oc2ccc(Br)cc2Br)c(Br)c1,44668,"cytotoxic, partial curve, poor fit"
C(=NC1CCCCC1)=NC1CCCCC1,50118,"cytotoxic, partial curve, poor fit"

Once more, the final 2:

SMILES	potency (nM)	remark
Brc1ccc(Oc2ccc(Br)cc2Br)c(Br)c1	44668	cytotoxic, partial curve, poor fit
C(=NC1CCCCC1)=NC1CCCCC1	50118	cytotoxic, partial curve, poor fit